Measurements published in doi:10.1101/2025.06.12.659276.
These are yes or no findings as the source states them, for the method shown. In cells and extracts the contact can be indirect. Some results given as binding are weak or reduced against the parent protein; the word gives no strength.

Chains of the proteins cited; added tags and fusions are not shown.
UniProt P69332: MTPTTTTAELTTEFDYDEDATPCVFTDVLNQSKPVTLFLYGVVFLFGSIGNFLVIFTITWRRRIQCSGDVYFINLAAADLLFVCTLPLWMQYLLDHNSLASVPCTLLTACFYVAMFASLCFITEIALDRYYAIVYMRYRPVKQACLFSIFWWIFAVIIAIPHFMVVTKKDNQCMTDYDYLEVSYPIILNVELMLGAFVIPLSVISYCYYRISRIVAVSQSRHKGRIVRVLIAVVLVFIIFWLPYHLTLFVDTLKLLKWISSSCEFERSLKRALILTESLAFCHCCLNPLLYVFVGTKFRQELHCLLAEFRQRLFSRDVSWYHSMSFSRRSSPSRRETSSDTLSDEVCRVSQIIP
UniProt P49407: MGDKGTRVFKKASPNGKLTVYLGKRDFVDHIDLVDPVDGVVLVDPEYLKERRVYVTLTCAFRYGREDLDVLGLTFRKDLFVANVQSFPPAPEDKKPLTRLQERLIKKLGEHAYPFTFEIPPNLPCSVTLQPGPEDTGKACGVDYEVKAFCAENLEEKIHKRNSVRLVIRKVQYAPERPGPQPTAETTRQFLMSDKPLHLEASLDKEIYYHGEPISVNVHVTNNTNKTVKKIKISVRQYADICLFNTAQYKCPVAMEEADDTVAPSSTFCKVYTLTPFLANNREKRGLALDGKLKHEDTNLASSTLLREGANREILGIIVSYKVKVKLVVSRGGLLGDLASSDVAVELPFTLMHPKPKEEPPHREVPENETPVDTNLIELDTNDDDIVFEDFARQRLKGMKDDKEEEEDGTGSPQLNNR
UniProt P32121: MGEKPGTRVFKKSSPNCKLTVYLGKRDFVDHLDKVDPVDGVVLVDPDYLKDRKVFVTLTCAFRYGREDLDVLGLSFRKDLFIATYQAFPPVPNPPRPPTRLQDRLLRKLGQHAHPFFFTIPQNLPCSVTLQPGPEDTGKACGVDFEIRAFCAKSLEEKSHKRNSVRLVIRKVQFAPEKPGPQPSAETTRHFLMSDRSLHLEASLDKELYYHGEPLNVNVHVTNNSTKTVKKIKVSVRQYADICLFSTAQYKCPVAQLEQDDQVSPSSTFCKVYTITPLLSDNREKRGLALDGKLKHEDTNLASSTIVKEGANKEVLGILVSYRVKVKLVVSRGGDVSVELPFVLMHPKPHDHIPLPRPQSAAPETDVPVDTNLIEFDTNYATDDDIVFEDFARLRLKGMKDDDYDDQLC

Molecular target: US28-Rluc (human cytomegalovirus) (UniProt P69332)
Assay: FRET or BRET; net BRET titration (saturation) curves in living U251 cells: increasing β-arrestin 1/2 fused to GFP10 with fixed amounts of US28-Rluc, US28-PDCT-Rluc or Rluc; Tyrode's buffer pH 7.4, 37°C, coelenterazine 400a

Substance | binding
β-arrestin1-GFP10 (from UniProt P49407 1-418) | binds
βarrestin2-GFP10 (from UniProt P32121 1-409) | binds
